Assay results reported in the supplement of paper PMC3334620.
Whole data set: some 33,000 sequences, median “E-score (-0.5 to 0.5)” near -0.0014, cut for the highest 2% near 0.25. The list shows a part of the results.

biological target: T1, Cad1 (UniProt P24813); assay: PBM E-score (8-mer binding enrichment) (E-score (-0.5 to 0.5)); higher = stronger / more preferred TF binding; settings: protein concentration: 100 nM; construct: GST-full length
T1 sequence: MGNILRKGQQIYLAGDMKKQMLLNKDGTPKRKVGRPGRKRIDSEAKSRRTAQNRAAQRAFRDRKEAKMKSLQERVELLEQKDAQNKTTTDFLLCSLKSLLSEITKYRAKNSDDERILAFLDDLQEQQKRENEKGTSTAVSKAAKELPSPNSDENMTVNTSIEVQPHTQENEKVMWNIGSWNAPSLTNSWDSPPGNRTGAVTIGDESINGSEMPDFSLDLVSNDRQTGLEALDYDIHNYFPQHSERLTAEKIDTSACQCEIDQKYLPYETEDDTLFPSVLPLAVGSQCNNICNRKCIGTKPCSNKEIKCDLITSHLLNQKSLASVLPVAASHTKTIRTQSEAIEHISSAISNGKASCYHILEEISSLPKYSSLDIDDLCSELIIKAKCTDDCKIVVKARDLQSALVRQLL
Procedure: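 Universal 'all 10-mer' protein binding microarrays (Agilent AMADID 015681) probed with GST-tagged S. cerevisiae TFs (full-length or DBD) made by in vitro transcription/translation (PURExpress), about 100-200 nM. Bound TF was detected with fluorescent anti-GST. Each ungapped 8-mer (which stands for itself and its reverse complement) is scored by the PBM enrichment score (E-score), a modified Wilcoxon-Mann-Whitney statistic from -0.5 to +0.5, computed with the Universal PBM Analysis Suite. Scale: above 0.35 generally sequence-specific binding.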

| Sequence | PBM E-score |
| --- | --- |
| AAACTGCG | -0.107 |
| ATGCGCGG | 0.0897 |
| CAGGAACA | -0.0906 |
| CTAGACAA | 0.0181 |
| CTAGTCGC | -0.0345 |
| AGGGGGGC | -0.471 |
| GACGTGAA | 0.11 |
| AACTAGCC | -0.0573 |
| GAAGCGGC | -0.167 |
| ACAGCAAG | 0.00019 |
| ACGGCCCC | -0.306 |
| AATTTCAG | 0.0613 |
| AATAACCG | -0.0312 |
| ATAACTTG | -0.0128 |
| TCCGTCAA | 0.0759 |
| ATTTACAA | 0.189 |
| AGCCAAGG | 0.0527 |
| AAAACTTA | 0.199 |
| CCTTGCCC | -0.00273 |
| AAGTGTTA | 0.0352 |
| TACTACAA | 0.156 |
| AGACAGCA | -0.075 |

| Sequence | PBM E-score |
| --- | --- |
| CATACTCG | 0.101 |
| ACCGAAAG | -0.0907 |
| AATAAACC | 0.0524 |
| TCGCCAGA | 0.0743 |
| ATTAACGC | 0.0741 |
| AGCGGACA | 0.00748 |
| ACATAAAC | 0.0822 |
| TCACCGAA | 0.0638 |
| AATTAGCA | 0.238 |
| CTACTCGA | 0.00532 |
| AAAAAAGA | 0.00316 |
| ACGTGATA | 0.0525 |
| AATCCACG | 0.048 |
| TAAGCATA | 0.197 |
| ATGAAGTC | -0.128 |
| CTAGTACC | -0.0753 |
| GTAGGATA | -0.116 |
| ACGAGAAG | -0.191 |
| CGCCCGAC | -0.0329 |
| AATATAAC | 0.195 |
| AAATGGTT | 0.145 |
| CAGTCCAA | -0.07 |

| Sequence | PBM E-score |
| --- | --- |
| ACACGAGA | -0.102 |
| ATGGGCCA | 0.00956 |
| ACTATACC | 0.03 |
| CGTACGGA | 0.116 |
| GTTGACCA | 0.138 |
| AAGTTACT | 0.0457 |
| CCTAGAGG | -0.272 |
| ATAAGCAG | 0.239 |
| ACCCGGGC | -0.177 |
| GCACGTCC | -0.036 |
| CGCGCGCA | 0.242 |
| ATCCTCGC | 0.00072 |
| CACCCCGA | -0.177 |
| TGTTCTAA | 0.144 |
| AACGGGAC | -0.148 |
| ATTAACTC | 0.2 |
| TGGCGCAA | -0.0637 |
| GCCGTGAA | 0.0361 |
| AGAGCACC | -0.227 |
| AGTCGACG | 0.296 |
| AGGGTAGC | -0.0956 |
| AGATTAAG | -0.00576 |

Shown in CSV form: entries from further up
Sequence,PBM E-score
ACACGAGA,-0.102
ATGGGCCA,0.00956
CGTACGGA,0.116
GTTGACCA,0.138
CCTAGAGG,-0.272
ATAAGCAG,0.239
ACCCGGGC,-0.177
GCACGTCC,-0.036
CGCGCGCA,0.242
ATCCTCGC,0.00072
CACCCCGA,-0.177
TGTTCTAA,0.144
ATTAACTC,0.2
TGGCGCAA,-0.0637
GCCGTGAA,0.0361
AGAGCACC,-0.227
AGTCGACG,0.296
AGGGTAGC,-0.0956
AGATTAAG,-0.00576

The list goes on:

| Sequence | PBM E-score |
| --- | --- |
| GGGTGAAA | 0.0237 |
| GGTGTCTA | -0.0772 |
| GAGCGAAC | -0.0683 |
| GAGCGTCA | -0.0479 |
| CGGTATGA | 0.103 |
| CATGCGTC | -0.0251 |
| ATATCTCG | 0.00582 |
| AGCCGAGC | 0.0959 |
| AAGAGTCA | 0.0374 |
| AATGAAAG | 0.0531 |
| AGCGAGTG | 0.0301 |
| GTGTGCTA | -0.0236 |
| ATAACACC | 0.0736 |
| TCAATACA | 0.073 |
| TAACACGA | 0.201 |
| AGTCCTAA | 0.00092 |
| GGATGACA | 0.249 |
| ATCCAAGG | 0.0167 |
| ACAGTCGG | 0.109 |
| CTTAGTTA | 0.164 |

For convenience, part of the list above:

| Sequence | PBM E-score |
| --- | --- |
| AAGAGTCA | 0.0374 |
| AATGAAAG | 0.0531 |
